# Reference: paper PMC7819943, “Rice protein-binding microarrays: a tool to detect cis-acting elements near promoter regions in rice”
# Amino acid sequences for entries named in this document (tags omitted).
# UniProt Q0JBA9, entry or part of it: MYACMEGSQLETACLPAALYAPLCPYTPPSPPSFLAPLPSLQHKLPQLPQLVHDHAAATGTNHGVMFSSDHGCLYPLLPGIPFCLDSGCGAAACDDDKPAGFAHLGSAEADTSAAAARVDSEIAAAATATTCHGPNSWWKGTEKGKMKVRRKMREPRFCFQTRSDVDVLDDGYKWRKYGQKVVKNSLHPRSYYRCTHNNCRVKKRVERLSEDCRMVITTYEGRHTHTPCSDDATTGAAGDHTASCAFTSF
# Some of the results follow.
# Biological target: OsWRKY34 (Oryza sativa, UniProt Q0JBA9 1-250)
# Assay: protein-binding microarray (RPBM); PBS, 2% BSA, 51.3 ng/ul salmon testes DNA, 50 uM zinc acetate, 200 nM TF, 25 C, 1 h; high values mean tight binding
# Settings: protein: recombinant; tags: N-terminal polyhistidine and DsRed monomer fusion (pET32a); label: CyDye5-dUTP incorporated in the synthesized complementary strand; 3' TTTTT single-stranded linker to array surface; dsDNA, one strand shown
# Procedure, shortened: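 Transcription factors, each fused N-terminally to a polyhistidine tag and DsRed, were expressed in E. coli BL21-CodonPlus and purified on Ni–NTA. A custom Agilent array was made double-stranded by primer extension with Cy5-dUTP and blocked with 2% BSA. It was incubated with 200 nM protein in PBS, 2% BSA, salmon testes DNA and 50 µM zinc acetate at 25 °C for 1 h, then washed. The binding signal is per-feature fluorescence intensity (arbitrary units) read on an Axon 4000B scanner.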
row,Sequence,binding signal
1,CATGCAATCATCAGAAACGGCATCGCAACAGCACAGCACCCGGAGTCACCTAGTGCAG,8080 fluorescence intensity (a.u.)
2,CGTGCGATTTGGGTTTGGGGCGTGCAATCATCATGATGCGCGGAGTCACCTAGTGCAG,9920 fluorescence intensity (a.u.)
3,CTTTTTTCTGCTTCCTTTTTCTGTTTGCGAAATTCGATGTCGGAGTCACCTAGTGCAG,11500 fluorescence intensity (a.u.)
4,TCCTACACACATAAATTTCTAATTTTTCCGTCACATCGTTCGGAGTCACCTAGTGCAG,8130 fluorescence intensity (a.u.)
5,TTTTTCTGTACGAAAACCCCTATCTTTCACACATCTTTTACGGAGTCACCTAGTGCAG,8280 fluorescence intensity (a.u.)
6,ACTTATTCCACCCGTGAGGCCGTGACGCTACTGCGCGGCCCGGAGTCACCTAGTGCAG,8090 fluorescence intensity (a.u.)
7,CATATTCAATTAGTGTGAGATTATATTTCTACGTTTTTTTCGGAGTCACCTAGTGCAG,9560 fluorescence intensity (a.u.)
8,GTTGTCCTGCCTTCGCCGCCAAGTTGCGCCGCCACCATCGCGGAGTCACCTAGTGCAG,8220 fluorescence intensity (a.u.)
9,TGTGCCAAATTTTTTTTTTATATACGGATGCACATTTGAACGGAGTCACCTAGTGCAG,8390 fluorescence intensity (a.u.)
10,CCACCTCTCTCTCTCTCTCTCCCACGCCACGCCACGCCACCGGAGTCACCTAGTGCAG,8140 fluorescence intensity (a.u.)
11,TGCACATCTTCAGTATACTCGTGGCATCAATTATCTTCTCCGGAGTCACCTAGTGCAG,9380 fluorescence intensity (a.u.)
12,CAAGGTTTGCCTCCACCTCTCTTGCATTTCCTATTCTCTCCGGAGTCACCTAGTGCAG,9600 fluorescence intensity (a.u.)
13,CATTTATTGTAGTTTAGACCATCTTACCTTTCTTCTATAGCGGAGTCACCTAGTGCAG,8100 fluorescence intensity (a.u.)
14,AGATTTGACTATCCTGCTGGAATCCGGTAACAATTTTTCACGGAGTCACCTAGTGCAG,9560 fluorescence intensity (a.u.)
15,CATTCACATCACTTATTTTGCTTCTGCTATGCTACGCCATCGGAGTCACCTAGTGCAG,8180 fluorescence intensity (a.u.)
16,CTCCTCAGCTAGTTGCTTGTCCCACACCACATCTTTCTTTCGGAGTCACCTAGTGCAG,12900 fluorescence intensity (a.u.)
17,GGGTTTTTTTTATCAAAGTTAATTTTTCAGCTTGTGCTTTCGGAGTCACCTAGTGCAG,10400 fluorescence intensity (a.u.)
18,CTAACCAATCTCTCATTCTCTCTACCAACTCGACCAACCTCGGAGTCACCTAGTGCAG,9960 fluorescence intensity (a.u.)
19,CCATGGTTTTTTGCGCCCAGTTTTGACCGTTCGTCTTATTCGGAGTCACCTAGTGCAG,13000 fluorescence intensity (a.u.)
20,AGGGTTTCCGGCGGGGAGGGAAAGGTCTGGTATTTTTCTGCGGAGTCACCTAGTGCAG,13800 fluorescence intensity (a.u.)
21,AGAACTCTACTGTACGTACTAATCGCTGTCGAACTATAGTCGGAGTCACCTAGTGCAG,9210 fluorescence intensity (a.u.)

row,Sequence,binding signal
1,GTCACCACCGCTCTGGTCCTTGCCCGCATGCCACCGTCAACGGAGTCACCTAGTGCAG,11400 fluorescence intensity (a.u.)
2,TAGCATATCATACTCCCTCCGTCACATTTTAACTGCAGCCCGGAGTCACCTAGTGCAG,8210 fluorescence intensity (a.u.)
3,GGAGACTGAGTATGATAGGTGGGGCCATTTTCGTTTTTGCCGGAGTCACCTAGTGCAG,8920 fluorescence intensity (a.u.)
4,GTTGTCACCATTGTCCATGTGCTTAACTTGAAGAAAGTCTCGGAGTCACCTAGTGCAG,8310 fluorescence intensity (a.u.)
5,CGCCGTGTCGCAGTTCATCCTGACTAGCTTCACTTCAGAACGGAGTCACCTAGTGCAG,9460 fluorescence intensity (a.u.)
6,GGATTTGTGTTTGTCCTTTTTCTTTTAGCTTTCTTGGCAGCGGAGTCACCTAGTGCAG,11100 fluorescence intensity (a.u.)
7,GTTTTTATACGGATAGCGGGACTACCCACTTGCATCCCTACGGAGTCACCTAGTGCAG,8360 fluorescence intensity (a.u.)
8,CCACCTGATCTTCGTTGTACCTGGGGTTGGCTGCAGCAACCGGAGTCACCTAGTGCAG,9840 fluorescence intensity (a.u.)
9,AAGTATTTCTCTCTCGTTCTGCTCTCTGTTCATCCTCTTCCGGAGTCACCTAGTGCAG,10800 fluorescence intensity (a.u.)
10,AGACCTGTCATAATCTTTATATTGATTCCATCTTCTTTTTCGGAGTCACCTAGTGCAG,8650 fluorescence intensity (a.u.)
11,TTCCTTCCTTTTCCACGCGACTCTCTCCTTCCGGCTTCCGCGGAGTCACCTAGTGCAG,9630 fluorescence intensity (a.u.)
12,TCCGGGGCTTTTTTGGCTGGCGTGTTCGCTTCCCGTGATACGGAGTCACCTAGTGCAG,9160 fluorescence intensity (a.u.)
13,AGCTCTTTTTATTTTTCTATTTTTAGTTTTTTGCCTTTTTCGGAGTCACCTAGTGCAG,13500 fluorescence intensity (a.u.)
14,CGTCGTTTCGCAACTCCCTCACTTTTATCGCGCCGTTGATCGGAGTCACCTAGTGCAG,9080 fluorescence intensity (a.u.)
15,AACCTCCTGCAGCAGAGCCCCGATGTCGTCCACCAGTTCTCGGAGTCACCTAGTGCAG,9620 fluorescence intensity (a.u.)
16,AACCATCATGACCGGCTACCACTAAGCTGCGCCTGTCTACCGGAGTCACCTAGTGCAG,8700 fluorescence intensity (a.u.)
17,GTGACCCGCGGCGACTTCCCCGACGGCTTCGTCTTCGGCGCGGAGTCACCTAGTGCAG,10400 fluorescence intensity (a.u.)
18,ACATTATTTGCTGGGTCTAATCGTACTGACAGATACTCTGCGGAGTCACCTAGTGCAG,8370 fluorescence intensity (a.u.)
19,CTTTTCTTTTCCTTTATTTTTTTCTTTTCTTTTTTTTTATCGGAGTCACCTAGTGCAG,9580 fluorescence intensity (a.u.)
20,CTTGTAATGTCAGTTTGTGGCTTATTTACATTGCATTTTTCGGAGTCACCTAGTGCAG,10600 fluorescence intensity (a.u.)
21,CTGTGCACGCGGAAACTCGGTGATCTTGATTTATAACCTGCGGAGTCACCTAGTGCAG,8160 fluorescence intensity (a.u.)

# Given as tab-separated lines: entries from further up.
row	Sequence	binding signal
1	GTCACCACCGCTCTGGTCCTTGCCCGCATGCCACCGTCAACGGAGTCACCTAGTGCAG	11400 fluorescence intensity (a.u.)
5	CGCCGTGTCGCAGTTCATCCTGACTAGCTTCACTTCAGAACGGAGTCACCTAGTGCAG	9460 fluorescence intensity (a.u.)
6	GGATTTGTGTTTGTCCTTTTTCTTTTAGCTTTCTTGGCAGCGGAGTCACCTAGTGCAG	11100 fluorescence intensity (a.u.)
9	AAGTATTTCTCTCTCGTTCTGCTCTCTGTTCATCCTCTTCCGGAGTCACCTAGTGCAG	10800 fluorescence intensity (a.u.)
11	TTCCTTCCTTTTCCACGCGACTCTCTCCTTCCGGCTTCCGCGGAGTCACCTAGTGCAG	9630 fluorescence intensity (a.u.)
13	AGCTCTTTTTATTTTTCTATTTTTAGTTTTTTGCCTTTTTCGGAGTCACCTAGTGCAG	13500 fluorescence intensity (a.u.)
14	CGTCGTTTCGCAACTCCCTCACTTTTATCGCGCCGTTGATCGGAGTCACCTAGTGCAG	9080 fluorescence intensity (a.u.)
15	AACCTCCTGCAGCAGAGCCCCGATGTCGTCCACCAGTTCTCGGAGTCACCTAGTGCAG	9620 fluorescence intensity (a.u.)
17	GTGACCCGCGGCGACTTCCCCGACGGCTTCGTCTTCGGCGCGGAGTCACCTAGTGCAG	10400 fluorescence intensity (a.u.)
20	CTTGTAATGTCAGTTTGTGGCTTATTTACATTGCATTTTTCGGAGTCACCTAGTGCAG	10600 fluorescence intensity (a.u.)
